From patent publication US20050025768A1
Results are given in words; binding and its absence hold for the method and conditions named. Some entries that bind do so weakly or less than the wild type.

Protein sequences, listed by entry. Tags and fused reporters are not part of them. Residues count along the entry.
UniProt P10148, residues 24-148: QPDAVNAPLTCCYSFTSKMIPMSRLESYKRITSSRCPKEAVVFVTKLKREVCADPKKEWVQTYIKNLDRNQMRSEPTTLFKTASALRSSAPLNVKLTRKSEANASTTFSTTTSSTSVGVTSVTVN
UniProt P13500, residues 24-99: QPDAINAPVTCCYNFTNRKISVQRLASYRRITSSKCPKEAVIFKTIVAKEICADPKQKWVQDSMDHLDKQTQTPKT
UniProt Q62401, residues 23-104: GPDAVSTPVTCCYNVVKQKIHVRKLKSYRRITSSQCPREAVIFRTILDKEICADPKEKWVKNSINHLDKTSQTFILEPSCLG

Key:
[1] = target: murine MCP-1 (JE) (mouse) (UniProt P10148); assay: ELISA, purified mAb 10 ug/ml
[2] = target: human MCP-1 (human) (UniProt P13500); assay: ELISA, purified mAb 10 ug/ml
[3] = target: murine MCP-5 (mouse) (UniProt Q62401); assay: ELISA, purified mAb 10 ug/ml
[4] = target: murine MCP-3 (mouse) (UniProt Q03366); assay: ELISA, purified mAb 10 ug/ml
[5] = target: human MCP-1 (human) (UniProt P13500); assay: ELISA, hybridoma supernatant
[6] = target: human MCP-1 (human) (UniProt P13500); assay: summary of Tables 1 and 3 (ELISA)

| Binder | binding [1] | binding [2] | binding [3] | binding [4] | binding [5] | binding [6] |
| --- | --- | --- | --- | --- | --- | --- |
| 6D21 (antibody, IgG1, V domains shown) VH: EVQLQQSGAELVKAGASVKLSCPASGLNIKDTYMHWVKQRPEQGLEWIGRIDPANGNTKFDPKFQGKATITADTSSNTAYLQLSSLTSEDTAVYYCARGVFGFFDYWGQGTTLTVSS VL: DIQMTQSSSSFSVSLGDRVTITCKATEDIYNRLAWYQQKPGSAPRLLISGATSLETGVPSRFSGSGSGKDYTLSITSLQTEDVATYYCQQFWSAPYTFGGGTKLEIK | binds | binds | binds | binds | binds | binds |
| 7H1 (antibody, IgG1, V domains shown) VH: EVQLQQSGAELVKAGASVKLSCPASGLNIKDTYMHWVKQRPEQGLEWIGRIDPANGNTKFDPKFQGKATITADTSSNTAYLQLSSLTSEDTAVYYCARGVFGFFDYWGQGTTLTVSS VL: DIQMTQSSSSFSVSLGDRVTITCKATEDIYNRLAWYQQKPGSAPRLLISGATSLETGVPSRFSGSGSGKDYTLSITSLQTEDVATYYCQQFWSAPYTFGGGTKLEIK | binds | binds | binds | binds | binds | binds |
| 6I5 (antibody, IgG1, V domains shown) VH: EVQLQQSGAELVKAGASVKLSCPASGLNIKDTYMHWVKQRPEQGLEWIGRIDPANGNTKFDPKFQGKATITADTSSNTAYLQLSSLTSEDTAVYYCARGVFGFFDYWGQGTTLTVSS VL: DIQMTQSSSSFSVSLGDRVTITCKATEDIYNRLAWYQQKPGSAPRLLISGATSLETGVPSRFSGSGSGKDYTLSITSLQTEDVATYYCQQFWSAPYTFGGGTKLEIK | binds | binds | binds | binds | binds | binds |

Now from value to binder:

| binding [1] | binding [2] | binding [3] | binding [4] | binding [5] | binding [6] | Binder |
| --- | --- | --- | --- | --- | --- | --- |
| binds | binds | binds | binds | binds | binds | 4N4 (antibody, IgG1, V domains shown) VH: EVQLQQSGAELVKAGASVKLSCPASGLNIKDTYMHWVKQRPEQGLEWIGRIDPANGNTKFDPKFQGKATITADTSSNTAYLQLSSLTSEDTAVYYCARGVFGFFDYWGQGTTLTVSS VL: DIQMTQSSSSFSVSLGDRVTITCKATEDIYNRLAWYQQKPGSAPRLLISGATSLETGVPSRFSGSGSGKDYTLSITSLQTEDVATYYCQQFWSAPYTFGGGTKLEIK |
| binds | binds | binds | binds | binds | binds | 5A13 (antibody, IgG1, V domains shown) VH: EVQLQQSGAELVKAGASVKLSCPASGLNIKDTYMHWVKQRPEQGLEWIGRIDPANGNTKFDPKFQGKATITADTSSNTAYLQLSSLTSEDTAVYYCARGVFGFFDYWGQGTTLTVSS VL: DIQMTQSSSSFSVSLGDRVTITCKATEDIYNRLAWYQQKPGSAPRLLISGATSLETGVPSRFSGSGSGKDYTLSITSLQTEDVATYYCQQFWSAPYTFGGGTKLEIK |
